Experimental data as given in publication doi:10.1101/668608.
These are yes or no findings as the source states them, for the method shown. Binding seen in cells or lysates may run through a third protein. Some entries that bind do so weakly or less than the wild type.

Protein sequences, listed by entry. Tags and fused reporters are not part of them.
UniProt P34152: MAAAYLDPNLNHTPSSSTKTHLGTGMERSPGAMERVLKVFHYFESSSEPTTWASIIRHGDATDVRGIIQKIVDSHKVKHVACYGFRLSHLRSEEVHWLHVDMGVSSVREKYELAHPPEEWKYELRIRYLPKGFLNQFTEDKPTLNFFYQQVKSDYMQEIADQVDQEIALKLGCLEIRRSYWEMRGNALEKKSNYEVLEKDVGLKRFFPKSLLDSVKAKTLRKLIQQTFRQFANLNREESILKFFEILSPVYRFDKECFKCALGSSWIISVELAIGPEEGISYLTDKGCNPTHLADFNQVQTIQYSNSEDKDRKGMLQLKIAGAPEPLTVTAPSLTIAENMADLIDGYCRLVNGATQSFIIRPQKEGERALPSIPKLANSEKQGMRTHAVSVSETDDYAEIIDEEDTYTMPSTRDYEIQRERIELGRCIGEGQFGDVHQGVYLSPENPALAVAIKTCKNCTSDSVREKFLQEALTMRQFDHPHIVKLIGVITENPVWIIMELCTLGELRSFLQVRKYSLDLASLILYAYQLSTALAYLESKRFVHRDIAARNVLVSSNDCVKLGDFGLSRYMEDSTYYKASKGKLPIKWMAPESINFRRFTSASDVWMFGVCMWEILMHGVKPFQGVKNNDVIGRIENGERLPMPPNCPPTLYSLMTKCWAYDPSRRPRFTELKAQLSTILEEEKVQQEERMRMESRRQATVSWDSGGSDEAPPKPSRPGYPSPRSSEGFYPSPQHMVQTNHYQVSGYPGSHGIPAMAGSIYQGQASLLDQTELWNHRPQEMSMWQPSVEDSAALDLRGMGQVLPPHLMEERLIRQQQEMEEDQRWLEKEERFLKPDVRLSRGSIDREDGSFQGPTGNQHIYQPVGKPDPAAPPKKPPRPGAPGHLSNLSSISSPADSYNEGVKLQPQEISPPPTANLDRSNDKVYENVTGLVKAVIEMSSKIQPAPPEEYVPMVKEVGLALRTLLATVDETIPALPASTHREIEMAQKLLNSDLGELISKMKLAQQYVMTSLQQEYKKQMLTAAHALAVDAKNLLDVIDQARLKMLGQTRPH

Biological target: focal adhesion kinase (FAK) (mouse (endogenous in splenic B cells)) (UniProt P34152)
Experiment: co-IP

binding: binds
B1: Myo1e (protein, UniProt E9Q634 1-1107)
chain: MGSKGAYRYHWQSHNVKHSGVDDMVLLSKITESSIVENLKKRYMDDYIFTYIGSVLISVNPFKQMPYFGEKEVEMYQGAAQYENPPHIYALADSMYRNMIIDRENQCVIISGESGAGKTVAAKYIMSYVSRVSGGGPKVQHVKDIILQSNPLLEAFGNAKTVRNNNSSRFGKYFEIQFSPGGEPDGGKISNFLLEKSRVVMRNPGERSFHIFYQLIEGASPEQKQSLGITSMDYYYYLSLSGSYKVDDIDDKRDFQETLHAMNVIGIFSEEQTLVLQIVAGILHLGNISFKEVGNYAAVESEEFLAFPAYLLGINQDRLKEKLTSRQMDSKWGGKSESIHVTLNVEQACYTRDALAKALHARVFDFLVDSINKAMEKDHEEYNIGVLDIYGFEIFQKNGFEQFCINFVNEKLQQIFIELTLKAEQEEYVQEGIRWTPIEYFNNKIVCDLIESKVNPPGIMSILDDVCATMHAVGEGADQTLLQKLQMQIGSHEHFNSWNQGFIIHHYAGKVSYDMDGFCERNRDVLFMDLIELMQSSELPFIKSLFPENLQADKKGRPTTAGSKIKKQANDLVSTLMKCTPHYIRCIKPNETKKPKDWEESRVKHQVEYLGLKENIRVRRAGYAYRRVFQKFLQRYAILTKATWPVWRGDEKQGVLHLLQSVNMDSDQFQLGRSKVFIKAPESLFLLEEMRERKYDGYARVIQKTWRKFVARKKYVQMREEASDLLLNKKERRRNSINRNFIGDYIGMEERPELQQFVGKREKIDFADTVTKYDRRFKGVKRDLLLTPKCLYLIGREKVKQGPDKGVVKEVLKRRIEVERILSVSLSTMQDDIFILHEQEYDSLLESVFKTEFLSLLAKRYEEKTQKQLPLKFSNTLELKLKKENWGPWSAGGSRQVQFHQGFGDLAILKPSNKVLQVSIGPGLPKNSRPTRRNTVTSRGYPGGTKNNYPMRAAPAPPGCHQNGVIRNQFVPPPHAFGNQRSNQKSLYTSMARPPLPRQQSTGSDRLSQTPESLDFLKVPDQGVAGVRRQTSSRPPPAGGRPKPQPKPKPQVPQCKALYAYDAQDTDELSFNANDIIDIIKEDPSGWWTGRLRGKQGLFPNNYVTKI
